We go through two molecules from US20120322150A1, “Mechanism and Method for Regulating Glycogen Synthase Kinase 3 (GSK3)-Related Kinases” (CARNEGIE INSTITUTION OF WASHINGTON, priority 2009, published 2012).

Test [1] has as its target T1, BIN2-YFP (Arabidopsis) (UniProt Q39011).
T1 sequence (looked up): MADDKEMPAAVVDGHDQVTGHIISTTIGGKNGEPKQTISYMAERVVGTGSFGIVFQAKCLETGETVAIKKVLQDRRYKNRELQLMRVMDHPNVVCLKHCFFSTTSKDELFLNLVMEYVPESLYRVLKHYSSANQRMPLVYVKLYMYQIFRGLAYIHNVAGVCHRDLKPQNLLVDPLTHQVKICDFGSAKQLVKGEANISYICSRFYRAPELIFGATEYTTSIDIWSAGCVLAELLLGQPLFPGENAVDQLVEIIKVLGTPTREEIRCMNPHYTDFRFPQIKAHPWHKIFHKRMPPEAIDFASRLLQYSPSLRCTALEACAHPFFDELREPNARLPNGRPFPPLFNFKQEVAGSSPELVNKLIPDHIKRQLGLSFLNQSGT
The experiment in a line: co-immunoprecipitation from tobacco leaves with anti-GFP antibody, blot with anti-myc.

Test [2] addresses T1, BIN2-YFP (Arabidopsis). The experiment in a line: co-immunoprecipitation from tobacco cells.
Test [3] has as its target T2, bin2-1 fused N-terminal half (nYFP) of yellow fluorescence protein (Arabidopsis) (UniProt Q39011).
T2 sequence (looked up): T1 sequence (looked up) with E263K
As to the kind of experiment: BiFC (FIG. 14).

The target in test [4] is T2, bin2-1 fused N-terminal half (nYFP) of yellow fluorescence protein (Arabidopsis). As to the kind of experiment: BiFC.

Residue numbers refer to the chain shown, from its start. No constants are given. Whether binding was seen depends on the method and setting. For some of these results: Binding seen in cells or lysates may run through a third protein. Some binding calls cover weakened binding; strength is not graded here. Sequences can lack the tags named with a protein.

B1: BSL1 (co-immunoprecipitation construct, tobacco) (enzyme, not shown: small tags and cut ends)
chain: MGSKPWLHPAPQYKTLETFWDDEDDAPGPRCAHTLTAVAATKTHGPRLILFGGATAIEGGSSSVPGIRLAGVTNTVHSYDILTRKWTRLKPAGEPPSPRAAHAAAAVGTMVVFQGGIGPAGHSTDDLYVLDMTNDKFKWHRVVVQGDGPGPRYGHVMDLVSQRYLVTVTGNDGKRALSDAWALDTAQKPYVWQRLNPDGDRPSARMYASGSARSDGMFLLCGGRDTLGAPLGDAYGLLMHRNGQWEWTLAPGVAPSPRYQHAAVFVGARLHVSGGVLRGGRVIDAEASVAVLDTAAGVWLDRNGQVTSARGSKGQIDQDPSFELMRRCRHGAASVGIRIYVHGGLRGDVLLDDFLVAENSTFQSDISSPLLASDRTQQSSTPRFSYAARPPSGSEPSFSMSEGLSLDENSLEKLTEASAAEAEVASSVWRAAQLGAGTLDEEPSTSDASSPIVESTTDGTANEGDVRLHPRAVVVAKETVGSLGGMVRQLSLDQFQNESRRMVPMNNSDVPQPTKKFTRQKSPQGLHKKVIAALLRPRNWKPPGNRKFFLDSYEVGELCYAAEQIFMHEQTVLQLKAPIKVFGDLHGQFGDLMRLFDEYGFPSTAGDITYIDYLFLGDYVDRGQHSLETITLLLALKIEYPENVHLIRGNHEAADINALFGFRLECIERMGENDGIWAWTRFNQLFNYLPLAALIENKIICMHGGIGRSISTVEQIEKIERPITMDAGSLVLMDLLWSDPTENDSIEGLRPNARGPGLVTFGPDRVTEFCKRNKLQLIIRAHECVMDGFERFAQGQLITLFSATNYCGTANNAGAILVVGRGLVIVPKLIHPLPPPILSPENSPEHSGDDAWMQELNIQRPPTPTRGRPQPDFDRSSLAYI
With B1, the binding result with BIN2-YFP (Arabidopsis) [1] and with BIN2-YFP (Arabidopsis) [2] was “binds” throughout.

B2: BSL1 fused C-terminal half (cYFP) of yellow fluorescence protein (enzyme, not shown: large carriers)
chain: B1 chain
On to B2, for which the binding entry in test [3] and in test [4] was “binds” each time.
